Experimental data taken from PubChem BioAssay AID2685 (National Center for Advancing Translational Sciences (NCATS), 2010).
This is one part of the list. Shown are side measurements of this screen, not its main read-out; they come without a call. The list favours compounds with an active or inconclusive main result. The note in brackets gives the kind of curve behind each potency; many fits are weak.

Experiment: qHTS Assay for Lipid Storage Modulators in Drosophila S3 Cells;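 on cell number change: cells counted by Cell Tracker Red CMTPX staining in the red channel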
Settings: BODIPY lipid droplet fluorescence, 18-24 h; for cell number change: measured here: cell count max response, cells fed with added oleic acid
Procedure, shortened: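 Laser-scanning cytometry quantifies lipid droplet accumulation (500–530 nm total intensity; droplet/cell object ratio) in oleic acid-fed (400 uM added) Drosophila S3 cells treated with a concentration series. 20 uM Triacsin C defined 100% inhibition.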

[1] = measured here: lipid fluorescence (Fed channel) AC50, cells fed with added oleic acid
[2] = measured here: cell number channel AC50, cells fed with added oleic acid

SMILES | cell number change [%] | AC50 [1] | AC50 [2]
CC(=O)N(C)N(C)c1cc(C)nc(N)n1 | 23.7 | 29.1 µM [rising, partial curve] | –
CN1CCN(C(=O)c2cccn(Cc3ccc(C(F)(F)F)cc3)c2=O)CC1 | 14.3 | 0.82 µM [rising, full curve, poor fit] | –
Cc1ccc(NC(=O)Cn2nnc(C(=O)NCc3cccs3)c2N)c(C)c1 | -4.18 | 4.61 µM [falling, single point] | –
CN1CCN(S(=O)(=O)c2cccc3nsnc23)CC1 | -1.32 | – | –
CCOC(=O)Nc1ccc2c(c1)N(C(=O)CN1CCN(CCO)CC1)c1ccccc1CC2 | -2.7 | 29.1 µM [falling, single point] | –
COCc1cc([C@@H]2C[C@H]3CN(c4ccccc4)C(=O)[C@]34CCCN24)ccc1OC | 6.55 | 3.26 µM [rising, single point] | –
Cc1cc(Br)c(S(=O)(=O)NCc2ccncc2)cc1C | -45.9 | 10.3 µM [falling, partial curve] | 13 µM [falling, partial curve]
O=C(COc1ccc2c3c(c(=O)oc2c1)CCC3)Nc1ccc(CCO)cc1 | -19.5 | 10.3 µM [rising, partial curve] | –
COc1cc(-c2nc3ccc(N4CCN(C)CC4)cc3[nH]2)cc(OC)c1OC | -9.26 | 4.11 µM [rising, single point] | 3.26 µM [rising, partial curve, poor fit]
Cc1ccc(S(=O)(=O)N(C)c2cc(S(=O)(=O)N3CCOCC3)c(C)cc2C)cc1 | -0.901 | 0.00461 µM [falling, partial curve, poor fit] | –
Cc1cc(C)c(C#N)c(SCc2ccccc2C(=O)O)n1 | -10.5 | 4.61 µM [falling, full curve, poor fit] | –
Cc1ccc(C)c(OCC(=O)Nc2ccc3c(c2)OCO3)c1 | 49.4 | 6.51 µM [rising, partial curve, poor fit] | –
CC[N+]1(CC)CC2=Cc3c(ccc4ccccc34)CC2C1 (centres undefined) | -103 | – | 4.11 µM [falling, full curve]
C/C(=N/OCC(=O)Nc1ccccc1)c1cccs1 | -7.96 | – | 0.259 µM [falling, full curve]
CCOC(=O)/C(C#N)=C/c1c(Oc2cccc(C)c2)nc2ccccn2c1=O | 33.9 | 29.1 µM [rising, single point] | 0.103 µM [rising, full curve, poor fit]
C/C(=N\Nc1ccc(S(=O)(=O)Nc2ccccc2)cc1[N+](=O)[O-])c1ccc(N2CCOCC2)cc1 | -6.69 | 0.731 µM [falling, full curve] | –
COc1ccc(C(=O)N(C)CCCC2CCCC2)cc1OC1CCN(C(C)=O)CC1 | 18.8 | 6.51 µM [falling, single point] | –
CC(=O)c1cccc(NC(=O)Nc2ccc3c(c2)N(C)C(=O)CS3)c1 | – | 0.092 µM [rising, full curve, poor fit] | –
COC(=O)NN=C1CCC(c2ccccc2)CC1 (centres undefined) | 7.8 | 4.61 µM [falling, single point] | –
CCCC(=O)Nc1nnc(Sc2ccc(N(C)C)cc2)s1 | – | 0.13 µM [rising, full curve, poor fit] | –

SMILES | cell number change [%] | AC50 [1] | AC50 [2]
CC(C)NC(=O)CN1C(=O)c2cccc3cccc1c23 | 14.2 | – | –
CCN(C(=O)COC(=O)c1cc(-c2ccccc2)nc2c1c(C)nn2-c1ccc(C)cc1)C1CCS(=O)(=O)C1 (centres undefined) | 5.34 | 29.1 µM [rising, single point] | –
COc1ccc(C2C(C(=O)O)CC(=O)N2c2ccc(OC)cc2)cc1 (centres undefined) | – | 5.8 µM [falling, single point] | –
COc1ccc(S(=O)(=O)N2CCc3ccccc32)cc1C(=O)N1CCOCC1 | 26.1 | – | –
COc1ccc(NC(=O)COC(=O)c2ccc(Br)o2)cc1OC | -18.1 | – | –
CSc1ccccc1NC(=O)C1CC(c2ccccc2O)=NO1 (centres undefined) | -2.64 | – | 0.0058 µM [falling, full curve, poor fit]
CC(=O)Nc1ccc(-c2cn3ccsc3n2)cc1 | 5 | 2.59 µM [rising, partial curve] | –
O=C(CN1C(=O)NC2(CCCC2)C1=O)NCCc1ccc(Cl)cc1Cl | 11.6 | 6.51 µM [rising, single point] | –
CC(Sc1ncc(C(F)(F)F)cc1Cl)C(=O)NC(N)=O (centres undefined) | -2.17 | – | 6.51 µM [rising, single point]
Cn1cc(CC(=O)NCCCN2CCCC2)c2ccccc21 | -82.3 | – | 25.9 µM [falling, partial curve, poor fit]
CC(C)CSc1ncnc2c1oc1nc3c(cc12)COC(C)(C)C3 | 24.9 | – | –
NC(=O)NC(c1ccccc1)c1cccc2ccccc12 (centres undefined) | -4.69 | 3.66 µM [rising, partial curve, poor fit] | 2.59 µM [rising, partial curve, poor fit]
CCCCOCCCNC(=O)N[C@@H](CC(C)C)C(=O)O | -181 | 3.26 µM [falling, single point] | 20.6 µM [falling, partial curve]
Cc1ccc(N(CC(=O)NC2CCCC2)C(=O)CCC(=O)Nc2nccs2)cc1C | -33.3 | – | 0.00517 µM [falling, full curve, poor fit]
CSc1ccc(/C=C(\NC(=O)c2ccccc2)C(=O)NCCN2CCOCC2)cc1 | 30.4 | – | –
CCOc1ccc(OCCC(=O)OCC(=O)NC(C)c2ccccc2)cc1 (centres undefined) | -4.6 | 18.4 µM [falling, partial curve] | –
Cc1cccc(-n2ccc(=O)c(C(=O)Nc3ccc(S(=O)(=O)Nc4nccs4)cc3)n2)c1 | -2.67 | 4.11 µM [rising, partial curve, poor fit] | –
COCCN(Cc1cc2cc(C)c(C)cc2nc1Cl)C(=O)N1CCOCC1 | 29.7 | 29.1 µM [rising, single point] | –
COc1cc(OC)c(C(=O)OC(C)C(=O)Nc2cc(C(F)(F)F)ccc2Cl)cc1OC (centres undefined) | -6.61 | 29.1 µM [falling, single point] | –

Two of the compounds above, field by field:
COc1ccc(C2C(C(=O)O)CC(=O)N2c2ccc(OC)cc2)cc1 (centres undefined)
  AC50 [1]: 5.8 µM [falling, single point]
CC(=O)Nc1ccc(-c2cn3ccsc3n2)cc1
  cell number change [%]: 5; AC50 [1]: 2.59 µM [rising, partial curve]
